Results from PMC4721551.
No constants are given. Whether binding was seen depends on the method and setting.

Biological target: full-length DnaA (wtDnaA) (E. coli) (UniProt P03004)
Assay: condition: only without SOPG liposomes (aqueous phase), 0.8 uM DnaA; cross-linking; 0.8 uM ATP-DnaA with 2.4 uM BMOE in buffer AC without DTT, 1 mM ATP, aqueous phase without SOPG liposomes (0 uM), 20 min at 30 C; non-reducing SDS/PAGE (10% gel), Coomassie staining; both purified

binding: no binding
B1: full-length DnaA (wtDnaA) (protein, UniProt P03004 1-467)
chain: MSLSLWQQCLARLQDELPATEFSMWIRPLQAELSDNTLALYAPNRFVLDWVRDKYLNNINGLLTSFCGADAPQLRFEVGTKPVTQTPQAAVTSNVAAPAQVAQTQPQRAAPSTRSGWDNVPAPAEPTYRSNVNVKHTFDNFVEGKSNQLARAAARQVADNPGGAYNPLFLYGGTGLGKTHLLHAVGNGIMARKPNAKVVYMHSERFVQDMVKALQNNAIEEFKRYYRSVDALLIDDIQFFANKERSQEEFFHTFNALLEGNQQIILTSDRYPKEINGVEDRLKSRFGWGLTVAIEPPELETRVAILMKKADENDIRLPGEVAFFIAKRLRSNVRELEGALNRVIANANFTGRAITIDFVREALRDLLALQEKLVTIDNIQKTVAEYYKIKVADLLSKRRSRSVARPRQMAMALAKELTNHSLPEIGDAFGGRDHTTVLHACRKIEQLREESHDIKEDFSNLIRTLSS
